Test system: patients with advanced solid tumours
Conditions: % decrease in ANC vs AUC, course 1, Figure 2
Text: Topoisomerases are essential nuclear enzymes that alter the topology of DNA during DNA metabolism by cleavage of DNA strands, strand passage and religation (Wang, 1985). Two major topoisomerases, types I and H, have been identified in all mammalian cells, and induce single- and double-strand breaks respectively. […] They have different sites of binding DNA and play a different role in the cell cycle. Received 15 November 1996 Revised 19 February 1997 Accepted 10April 1997 Correspondence to: VMM Herben, Slotervaart Hospital, Department of Pharmacy and Pharmacology, Louwesweg 6, 1066 EC Amsterdam, The Netherlands Topotecan (Hycamtin), a semisynthetic water-soluble derivative of camptothecin, was the first topoisomerase I-targeting drug to undergo clinical testing since the discontinuation of the clinical development of sodium camptothecin in the early 1970s. […] In view of topotecan's unique mechanism of action and important anti-tumour effects as single agent, recent studies have focused on combination therapies with other effective anti- cancer agents. The combination of topoisomerase I inhibitors with topoiso- merase II poisons is in theory an attractive strategy. […]

## CC[C@@]1(O)C(=O)OCc2c1cc1n(c2=O)Cc2cc3c(CN(C)C)c(O)ccc3nc2-1 [topotecan]
  Hill coefficient γ: 2.1

Reference: publication PMC2228184 (British Journal of Cancer, 1997)
